Experimental data from PMC10125982.
No constants are given. Whether binding was seen depends on the method and setting. Binding seen in cells or lysates may run through a third protein. Some entries that bind do so weakly or less than the wild type.

By UniProt entry, the sequences of proteins in these tests, tags left out.
UniProt Q969H0: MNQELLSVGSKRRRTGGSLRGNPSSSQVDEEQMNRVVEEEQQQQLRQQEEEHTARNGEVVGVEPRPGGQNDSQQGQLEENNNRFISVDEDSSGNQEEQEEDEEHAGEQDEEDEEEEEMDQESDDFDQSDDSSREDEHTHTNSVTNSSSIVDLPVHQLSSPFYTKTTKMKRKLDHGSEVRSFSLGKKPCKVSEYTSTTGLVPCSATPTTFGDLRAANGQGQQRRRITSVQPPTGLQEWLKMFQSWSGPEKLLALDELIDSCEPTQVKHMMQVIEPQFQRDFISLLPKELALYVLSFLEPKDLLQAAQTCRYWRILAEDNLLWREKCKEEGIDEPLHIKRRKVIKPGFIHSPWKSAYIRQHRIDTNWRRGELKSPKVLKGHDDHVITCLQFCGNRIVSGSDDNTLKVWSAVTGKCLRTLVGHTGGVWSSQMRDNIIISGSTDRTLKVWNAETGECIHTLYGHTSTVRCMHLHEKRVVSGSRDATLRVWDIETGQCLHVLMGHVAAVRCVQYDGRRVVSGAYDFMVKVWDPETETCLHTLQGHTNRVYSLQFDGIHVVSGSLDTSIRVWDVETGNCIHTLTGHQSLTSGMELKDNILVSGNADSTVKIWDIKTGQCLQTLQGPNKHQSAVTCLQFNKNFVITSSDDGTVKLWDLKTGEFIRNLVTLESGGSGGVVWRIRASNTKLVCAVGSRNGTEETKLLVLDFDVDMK
UniProt P01106: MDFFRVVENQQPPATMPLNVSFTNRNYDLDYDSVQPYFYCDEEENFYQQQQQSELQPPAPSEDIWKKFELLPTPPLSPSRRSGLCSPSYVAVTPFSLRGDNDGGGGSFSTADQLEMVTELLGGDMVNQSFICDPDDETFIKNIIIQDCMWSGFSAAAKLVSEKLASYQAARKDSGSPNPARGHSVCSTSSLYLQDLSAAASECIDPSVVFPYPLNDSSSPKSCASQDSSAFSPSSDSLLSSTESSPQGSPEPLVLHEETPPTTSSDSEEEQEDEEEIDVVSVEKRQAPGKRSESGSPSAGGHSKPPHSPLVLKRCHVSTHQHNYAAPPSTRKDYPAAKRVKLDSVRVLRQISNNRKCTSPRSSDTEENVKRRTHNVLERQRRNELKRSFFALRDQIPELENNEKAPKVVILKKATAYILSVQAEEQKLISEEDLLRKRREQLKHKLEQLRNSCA
UniProt Q09472: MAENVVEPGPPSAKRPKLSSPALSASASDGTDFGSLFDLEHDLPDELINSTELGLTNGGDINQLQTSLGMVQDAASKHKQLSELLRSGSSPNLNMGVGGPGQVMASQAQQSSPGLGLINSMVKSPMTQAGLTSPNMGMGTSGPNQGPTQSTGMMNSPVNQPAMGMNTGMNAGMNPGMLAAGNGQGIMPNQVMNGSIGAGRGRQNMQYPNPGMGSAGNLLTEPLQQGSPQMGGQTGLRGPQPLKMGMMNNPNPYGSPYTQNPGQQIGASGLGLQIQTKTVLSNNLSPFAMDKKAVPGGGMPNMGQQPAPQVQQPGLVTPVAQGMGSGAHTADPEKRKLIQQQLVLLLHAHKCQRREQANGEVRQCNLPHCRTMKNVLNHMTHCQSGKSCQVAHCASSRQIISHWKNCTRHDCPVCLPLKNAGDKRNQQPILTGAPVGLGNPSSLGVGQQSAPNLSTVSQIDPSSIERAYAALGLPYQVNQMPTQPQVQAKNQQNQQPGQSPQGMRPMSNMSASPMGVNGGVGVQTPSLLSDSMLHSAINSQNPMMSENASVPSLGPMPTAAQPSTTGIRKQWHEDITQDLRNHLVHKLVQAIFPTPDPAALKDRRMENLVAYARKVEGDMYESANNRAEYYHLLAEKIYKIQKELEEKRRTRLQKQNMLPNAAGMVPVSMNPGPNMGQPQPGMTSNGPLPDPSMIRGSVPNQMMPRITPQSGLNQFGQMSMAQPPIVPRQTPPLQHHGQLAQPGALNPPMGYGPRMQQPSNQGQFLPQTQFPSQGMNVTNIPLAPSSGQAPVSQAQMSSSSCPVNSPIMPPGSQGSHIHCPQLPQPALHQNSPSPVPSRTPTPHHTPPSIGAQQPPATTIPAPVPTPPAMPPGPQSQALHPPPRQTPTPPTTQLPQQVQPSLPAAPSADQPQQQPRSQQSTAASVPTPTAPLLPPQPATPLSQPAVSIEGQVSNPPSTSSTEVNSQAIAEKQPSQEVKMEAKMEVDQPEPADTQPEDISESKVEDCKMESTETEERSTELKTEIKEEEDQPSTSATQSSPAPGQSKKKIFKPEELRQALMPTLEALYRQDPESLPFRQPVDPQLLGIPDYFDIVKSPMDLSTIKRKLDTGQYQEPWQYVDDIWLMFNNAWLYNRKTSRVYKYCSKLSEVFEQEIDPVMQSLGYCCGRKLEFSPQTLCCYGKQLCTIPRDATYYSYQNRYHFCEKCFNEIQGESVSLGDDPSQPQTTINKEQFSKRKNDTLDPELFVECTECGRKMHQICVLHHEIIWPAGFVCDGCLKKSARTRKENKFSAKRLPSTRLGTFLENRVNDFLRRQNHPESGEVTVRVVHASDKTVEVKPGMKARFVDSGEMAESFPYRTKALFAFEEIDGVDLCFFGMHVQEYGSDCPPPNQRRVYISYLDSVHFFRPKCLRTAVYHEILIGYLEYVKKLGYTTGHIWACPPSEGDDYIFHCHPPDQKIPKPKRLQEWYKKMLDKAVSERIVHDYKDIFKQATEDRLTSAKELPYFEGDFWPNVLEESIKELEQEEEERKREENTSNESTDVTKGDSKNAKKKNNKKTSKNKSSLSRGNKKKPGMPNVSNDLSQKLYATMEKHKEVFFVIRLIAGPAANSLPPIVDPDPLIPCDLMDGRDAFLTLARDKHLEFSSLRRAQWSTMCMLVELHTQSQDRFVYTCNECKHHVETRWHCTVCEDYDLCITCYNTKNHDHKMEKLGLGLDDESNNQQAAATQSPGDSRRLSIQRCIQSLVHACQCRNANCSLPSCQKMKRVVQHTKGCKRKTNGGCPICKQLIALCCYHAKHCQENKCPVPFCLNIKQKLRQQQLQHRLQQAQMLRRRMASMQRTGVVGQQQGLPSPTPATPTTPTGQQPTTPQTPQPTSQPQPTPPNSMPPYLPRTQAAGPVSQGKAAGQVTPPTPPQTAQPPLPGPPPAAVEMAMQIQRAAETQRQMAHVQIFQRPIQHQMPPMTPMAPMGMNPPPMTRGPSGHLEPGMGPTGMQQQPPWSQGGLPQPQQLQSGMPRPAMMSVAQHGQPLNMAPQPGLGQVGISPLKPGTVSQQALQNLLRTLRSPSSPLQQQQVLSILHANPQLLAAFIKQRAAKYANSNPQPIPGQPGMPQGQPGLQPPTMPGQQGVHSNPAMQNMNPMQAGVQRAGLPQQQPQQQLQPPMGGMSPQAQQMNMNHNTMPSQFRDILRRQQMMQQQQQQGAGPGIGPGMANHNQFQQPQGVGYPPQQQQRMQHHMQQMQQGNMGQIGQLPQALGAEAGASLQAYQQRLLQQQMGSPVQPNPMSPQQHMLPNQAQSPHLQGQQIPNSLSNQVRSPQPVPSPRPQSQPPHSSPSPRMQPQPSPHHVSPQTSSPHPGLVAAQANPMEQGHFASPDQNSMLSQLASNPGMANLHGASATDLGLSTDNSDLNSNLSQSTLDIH

How the values were obtained:
Miz-1 [1] = target: T1, Miz-1 (UniProt Q13105); assay: co-IP; K562 cells transfected with Miz-1 constructs, with or without 0.5 μM imatinib; extracts incubated with anti-Miz-1 antibody overnight at 4 °C, Protein A/G Dynabeads, washed twice with PBS, western blot
T1 sequence: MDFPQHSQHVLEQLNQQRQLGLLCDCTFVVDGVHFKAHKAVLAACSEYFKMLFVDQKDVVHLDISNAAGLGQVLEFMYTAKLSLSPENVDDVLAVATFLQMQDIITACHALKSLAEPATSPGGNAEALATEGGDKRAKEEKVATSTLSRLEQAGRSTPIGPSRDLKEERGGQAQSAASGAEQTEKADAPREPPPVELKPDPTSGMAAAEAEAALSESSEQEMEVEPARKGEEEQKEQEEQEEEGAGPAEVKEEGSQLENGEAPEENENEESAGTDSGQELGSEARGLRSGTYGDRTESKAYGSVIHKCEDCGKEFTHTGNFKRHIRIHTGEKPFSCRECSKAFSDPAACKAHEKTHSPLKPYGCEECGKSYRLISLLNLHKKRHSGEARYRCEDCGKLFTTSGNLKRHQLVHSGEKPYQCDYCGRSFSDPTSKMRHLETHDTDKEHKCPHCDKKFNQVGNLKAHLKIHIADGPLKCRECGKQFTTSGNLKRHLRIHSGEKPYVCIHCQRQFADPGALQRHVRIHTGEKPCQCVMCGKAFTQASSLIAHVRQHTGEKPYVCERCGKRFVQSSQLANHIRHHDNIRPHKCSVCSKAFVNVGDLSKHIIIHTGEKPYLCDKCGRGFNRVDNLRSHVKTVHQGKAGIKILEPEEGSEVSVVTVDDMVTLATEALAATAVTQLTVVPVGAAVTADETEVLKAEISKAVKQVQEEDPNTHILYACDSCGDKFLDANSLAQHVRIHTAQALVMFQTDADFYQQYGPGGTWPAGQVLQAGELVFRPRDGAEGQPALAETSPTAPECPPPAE

[2] = target: Fbw7 (F-box and WD repeat domain-containing 7) (human (endogenous in K562)) (UniProt Q969H0); assay: co-IP; K562 cells with or without TXNIP overexpression; extracts incubated with anti-Fbw7 antibody overnight at 4 °C, Protein A/G Dynabeads, washed twice with PBS, western blot
Miz-1 [3] = target: T1, Miz-1; assay: co-IP; as a1, the sample of K562 cells treated with 0.5 μM imatinib; anti-Miz-1 antibody, Protein A/G Dynabeads, western blot

c-Myc (from UniProt P01106 1-454)
binding (Miz-1 [1]): binds
binding [2]: binds
binding (Miz-1 [3]): no binding (condition: cells treated with 0.5 μM imatinib)

p300 (from UniProt Q09472 1-2414)
binding (Miz-1 [1]): binds
